Laboratory results reported in patent publication US6410329.
Tags and fusion partners may be left off the protein sequences shown.

Molecular target: T1, VirD2 (Agrobacterium tumefaciens) (UniProt P06668)
T1 sequence (looked up, limits assumed): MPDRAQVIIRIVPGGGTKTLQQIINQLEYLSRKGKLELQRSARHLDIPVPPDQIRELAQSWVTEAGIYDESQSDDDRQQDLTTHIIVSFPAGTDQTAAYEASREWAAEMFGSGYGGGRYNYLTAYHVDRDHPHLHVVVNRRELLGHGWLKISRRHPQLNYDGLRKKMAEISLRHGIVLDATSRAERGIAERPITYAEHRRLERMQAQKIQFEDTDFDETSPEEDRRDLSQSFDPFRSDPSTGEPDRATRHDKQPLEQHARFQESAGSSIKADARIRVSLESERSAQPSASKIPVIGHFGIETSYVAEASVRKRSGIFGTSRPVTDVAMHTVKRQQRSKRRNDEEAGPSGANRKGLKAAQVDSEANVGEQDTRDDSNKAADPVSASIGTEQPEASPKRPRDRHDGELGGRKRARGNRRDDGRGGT
Experiment: activity in cells
Details: tobacco, VirD2 alone; not significant; protein in cells; protein details: pTiA6; variant of T-DNA right border duplex, pRB(+)Luc; only the site is given; counted as no effect

ATCCGGCAGGATATATACCGTTGTAATTCTGCA (double strand) [T-DNA right border reversed, pRB(-)Luc]
activity on this sequence (% of control luciferase): 85
